Measurements from publication PMC10163288.
Some of the results follow.

B1: il2ra_site2_3nfp_normal_mot_HHH_b2_06150_000000230_0001_39_53_H_._HHH_b1_07886_af2_0001_0000500017_0000001_0 (protein)
chain: SSSSSSEEVEELLEEAERLLREGNPEEAKQVLARAAAIAYELGDQRLFIEVAELVLKILRSSSSS
B2: il2ra_site1_3nfp_sap_13_mot_HHH_b1_03716_af2_000000235_0001_20_37_H_._HHH_b2_05993_0001_0000100005_0000001_0_0001_af2pred_0001_af2pred (protein)
chain: SSSSDEEQEEVEELLERAEKAAEEGDLEKARELFRRALKVALEINDPEAERLVHEAMRRASSSSS
B3: il2ra_site2_3nfp_normal_mot_HHH_b2_08245_000000023_0001_41_55_H_._ems_3hC_866_af2_0001_0000100004_0000001_0 (protein)
chain: SEEQEEQIERLEEELREAVERNDKEKIKEIIRLISHFVAENRDNPEARRLFFLAAEALFLVVQSS
B4: il2ra_site1_1z92_sap_17_mot_HHH_b1_06709_000000271_0001_41_56_H_._HHH_b1_04981_af2_0001_0000600008_0000001_0_0001_af2pred_0001_af2pred (protein)
chain: SLEEEVEELAKLIPDPRLRELVQALLEELELGNPAAKAFLEVLVKKLRRDPEAAKRLLEKALKAE
B5: il2ra_site1_2b5i_sap_23_mot_HHH_b2_04131_000000150_0001_1_16_H_._HHH_b1_04838_0001_0000300009_0000001_0_0001_af2pred_dldesign_0_af2pred (protein)
chain: SSAEDERLEREIEELEELKKKLTNPEAKKLLTLAIRALRKAIRHRDPGAAELARELREKALSLKS
B6: il2ra_site1_2b5i_normal_mot_HHH_b1_06515_af2_000000249_0001_1_17_H_._HHH_b1_06937_af2_0001_0000200012_0000001_0_af2pred_0001_af2pred (protein)
chain: SSSSDEELHRVDELYRRASELFRRGNKEEARQLLEEAIEIAEEAGDERTVKDLRRFLERISSSSS
B7: il2ra_site1_1z92_normal_mot_HHH_b2_05238_af2_000000252_0001_38_55_H_._HHH_b1_01495_af2_0002_0000300012_0000001_0_af2pred_0001_af2pred_1 (protein)
chain: SSSSSKEESLELAERAARRAIEAGNERSARRLLKFVIEAAEELGNEELLEELEELLERLESSSSS
B8: il2ra_site2_3nfp_sap_21_mot_HHH_b1_02173_000000190_0001_1_18_H_._HHH_b2_05995_0001_0000200011_0000001_0_0001 (protein)
chain: SEEELRELVRELLNVPPKSAEYIVAVALILAGGDPELAEELLREVIEEAGGDPNKVIQILYKRAR
B9: il2ra_site1_2b5i_sap_14_mot_1dae16775e8f4074d71d019417416b97_0001_af2_000000275_0001_1_12_H_._HHH_b2_06340_0001_0000200004_0000001_0_0001_af2pred_dldesign_0_af2 … (protein)
chain: SSSSMSLRDLTLAYLKKAEELLAAGKPEEAYKLLVMARRTAKKGGDEELVAEVEARLARLSSSSS
B10: il2ra_site1_2b5i_normal_mot_HHH_b1_01495_af2_000000272_0001_42_56_H_._HHH_b1_00083_0001_0000300014_0000001_0_af2pred_dldesign_0_af2pred (protein)
chain: SSSSDEEYARVDDLFHEALKLKKEGKLEEAQELLDEALELAKKVNDPKIIAELEYLKEKLSSSSS
B11: il2ra_site2_2erj_sap_14_mot_HHH_b1_03833_000000078_0001_1_20_H_._HHH_b1_07248_0001_0001200026_0000001_0_0001_af2pred_0001_1_af2pred_swapped (protein)
chain: SSSSSSEERRAAEANARLARLLFEGDEEEAEKVAEELEELAERVNDEDLLASAEFVLELLSSSSS
B12: il2ra_site2_2erj_sap_18_mot_HHH_b1_00449_000000059_0001_39_52_H_._HHH_b1_08757_af2_0001_0001000014_0000001_0_0001_af2pred_0001_af2pred (protein)
chain: SSSSSDEEEQREVEELLERARHIPDIEEALKLLQRAAQLAQELNDPELIELVEELLRELSSSSSS
B13: il2ra_site1_1z92_normal_mot_HHH_b1_05118_af2_000000199_0001_39_52_H_._HEEHE_3047_af2_0001_0000100001_0000001_0_af2pred_0001_af2pred_1 (protein)
chain: SEEEDIEKFVELASKSAGVPSVEWSIHNGELHVTINGDDEAARRLRKLLEKFAKAAGFKVSVEIR
B14: il2ra_site1_1z92_sap_19_mot_HHH_b1_05118_af2_000000199_0001_39_52_H_._HHH_b1_05328_af2_0001_0000400021_0000001_0_0001 (protein)
chain: DEIEELIEQLLRRAGVPPKDVEYVAEQAKRALERGNPRAATRLVKDMLRLAGNPELAEELEERLP
B15: il2ra_site1_3nfp_sap_12_mot_HHH_b1_04676_af2_000000031_0001_1_20_H_._HHH_b1_02329_0001_0000100005_0000001_0_0001 (protein)
chain: SLEEELKRLVEEGDPEELKRILEELIREALEKHDPRLAHEVLRLIAKLDLHGDPAARLAYEIIAK
B16: il2ra_site1_2b5i_normal_mot_2548690152cc24afdf538b66510d0e06_0001_af2_000000000_0001_37_51_H_._HHH_b2_05999_0001_0000400038_0000001_0_af2pred_dldesign_0_af2pred (protein)
chain: SSSSSPQERAFLRKYLEYAIKRIPDPAVQARLQAALARLEAEGDTETARAAAEEADEHLLSSSSS
B17: il2ra_site1_3nfp_sap_17_mot_HHH_b2_00809_af2_000000121_0001_23_40_H_._HHH_b1_05348_0001_0000800011_0000001_0_0001_af2pred_0001_af2pred (protein)
chain: SSSDIKREADRLLKELKELLANDDPEKFEEVFKRAEEVIEEANDPLAEEMLEFLEEKAKELSSSS
B18: il2ra_site2_3nfp_normal_mot_HHH_b2_04451_000000238_0001_21_37_H_._HHH_b1_07886_af2_0001_0000700027_0000001_0 (protein)
chain: SSSSSSEEVEELLQEARELLEEGDPAEALEVLQKASEIAARLGDEELARKVLELFELIQRSSSSS

Target: il2ra, P01589
Assay: yeast display titration

| Binder | apparent Kd |
| --- | --- |
| B1 | inactive: no binding seen |
| B2 | inactive: no binding seen |
| B3 | inactive: no binding seen |
| B4 | inactive: no binding seen |
| B5 | inactive: no binding seen |
| B6 | inactive: no binding seen |
| B7 | inactive: no binding seen |
| B8 | inactive: no binding seen |
| B9 | inactive: no binding seen |
| B10 | inactive: no binding seen |
| B11 | inactive: no binding seen |
| B12 | inactive: no binding seen |
| B13 | inactive: no binding seen |
| B14 | inactive: > 4.72 nM |
| B15 | inactive: no binding seen |
| B16 | inactive: no binding seen |
| B17 | inactive: no binding seen |
| B18 | inactive: no binding seen |

Looked up above:
B18 – apparent Kd: inactive: no binding seen
B2 – apparent Kd: inactive: no binding seen
